Experimental data taken from patent US12383633B1, “Injectable formulations of PARP inhibitors and uses thereof” (ZYMERON CORPORATION, priority 2024, dated 2025).
Some entries share one result that the patent states for a list of compounds.

Conditions: 25° C.
Description: (§1) 2.5 mL solutions of each excipient with each concentration were prepared by serial dilution of the saturated solution. One vial for each excipient experiment was prepared with 2.5 ml water. To each vial, 50 mg olaparib was added, sonicated, vortexed, and shaken at 40° C. for over 20 hr. After agitation at 25° C., the suspensions were filtered to obtain clear solutions. The clear solutions were analyzed using HPLC.
as §1, with “600 mg/mL” for “saturated”, “mL” for “ml”, “hours.” for “hr.”

sulfobutylether-β-cyclodextrin [Sulfobutylether β-cyclodextrin]
olaparib water solubility improvement by excipient: more than 100 fold
